# Data: the supplement of paper PMC7666118
# Protein sequences, listed by entry. Tags and fused reporters are not part of them. Lines headed by an entry give the natural chain unless they say otherwise; changes in a name come on top.
# UniProt P49591: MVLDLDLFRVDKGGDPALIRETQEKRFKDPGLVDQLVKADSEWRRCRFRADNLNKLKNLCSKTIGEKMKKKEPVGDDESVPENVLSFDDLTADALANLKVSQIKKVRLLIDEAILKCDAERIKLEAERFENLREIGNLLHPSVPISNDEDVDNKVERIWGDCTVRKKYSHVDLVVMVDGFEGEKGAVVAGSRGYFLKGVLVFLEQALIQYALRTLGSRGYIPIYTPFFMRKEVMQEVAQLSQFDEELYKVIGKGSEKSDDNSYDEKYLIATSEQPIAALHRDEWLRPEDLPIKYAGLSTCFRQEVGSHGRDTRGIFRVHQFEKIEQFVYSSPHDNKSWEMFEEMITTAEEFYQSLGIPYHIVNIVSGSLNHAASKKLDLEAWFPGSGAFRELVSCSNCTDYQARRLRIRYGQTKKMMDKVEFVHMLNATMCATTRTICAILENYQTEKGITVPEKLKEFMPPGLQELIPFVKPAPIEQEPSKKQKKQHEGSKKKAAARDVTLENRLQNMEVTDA
# This is one part of the list.
# Columns and labels:
# [1] = biological target: SARS (UniProt P49591); assay: dose-dependent thermal stabilisation call (2D-TPP, DLPTP, 10% FDR) (binary (1 = stabilised)); higher = stabilised by the compound; conditions: system: HL-60 intact cells; concentration range 0.04-10 µM
# [2] = biological target: T1, SARS2 (UniProt Q9NP81); assay: as above; conditions: system: HL-60 intact cells; concentration range 0.04-10 µM
# T1 sequence (whole entry): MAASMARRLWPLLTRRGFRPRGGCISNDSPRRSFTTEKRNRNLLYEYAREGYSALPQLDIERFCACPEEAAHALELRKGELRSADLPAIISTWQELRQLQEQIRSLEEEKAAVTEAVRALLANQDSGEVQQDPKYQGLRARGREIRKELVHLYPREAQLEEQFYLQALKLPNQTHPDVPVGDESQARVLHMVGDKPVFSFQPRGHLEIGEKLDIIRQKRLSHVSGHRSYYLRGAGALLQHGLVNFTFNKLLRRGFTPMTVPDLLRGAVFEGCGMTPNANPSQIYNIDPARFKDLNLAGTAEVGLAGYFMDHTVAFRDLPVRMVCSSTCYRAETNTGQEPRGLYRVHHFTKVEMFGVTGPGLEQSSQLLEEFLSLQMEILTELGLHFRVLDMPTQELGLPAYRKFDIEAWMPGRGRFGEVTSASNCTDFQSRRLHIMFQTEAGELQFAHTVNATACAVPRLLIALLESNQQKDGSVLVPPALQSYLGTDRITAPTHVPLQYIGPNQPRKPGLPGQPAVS
structure (smiles),measurement,setting,value
COc1ccc(Cn2ccc3ccc(C(=O)NO)cc32)cc1,dose-dependent thermal stabilisation call,[1],inactive: 0
same,dose-dependent thermal stabilisation call,[2],inactive: 0
